Results are given in words; binding and its absence hold for the method and conditions named. Binding seen in cells or lysates may run through a third protein. Some results given as binding are weak or reduced against the parent protein; the word gives no strength. Where a sequence is shown, tags or fusion partners need not be part of it.
T1: RBOHB, NADPH oxidase, BiFC fusion (Arabidopsis thaliana) (UniProt Q9SBI0)
T1 sequence: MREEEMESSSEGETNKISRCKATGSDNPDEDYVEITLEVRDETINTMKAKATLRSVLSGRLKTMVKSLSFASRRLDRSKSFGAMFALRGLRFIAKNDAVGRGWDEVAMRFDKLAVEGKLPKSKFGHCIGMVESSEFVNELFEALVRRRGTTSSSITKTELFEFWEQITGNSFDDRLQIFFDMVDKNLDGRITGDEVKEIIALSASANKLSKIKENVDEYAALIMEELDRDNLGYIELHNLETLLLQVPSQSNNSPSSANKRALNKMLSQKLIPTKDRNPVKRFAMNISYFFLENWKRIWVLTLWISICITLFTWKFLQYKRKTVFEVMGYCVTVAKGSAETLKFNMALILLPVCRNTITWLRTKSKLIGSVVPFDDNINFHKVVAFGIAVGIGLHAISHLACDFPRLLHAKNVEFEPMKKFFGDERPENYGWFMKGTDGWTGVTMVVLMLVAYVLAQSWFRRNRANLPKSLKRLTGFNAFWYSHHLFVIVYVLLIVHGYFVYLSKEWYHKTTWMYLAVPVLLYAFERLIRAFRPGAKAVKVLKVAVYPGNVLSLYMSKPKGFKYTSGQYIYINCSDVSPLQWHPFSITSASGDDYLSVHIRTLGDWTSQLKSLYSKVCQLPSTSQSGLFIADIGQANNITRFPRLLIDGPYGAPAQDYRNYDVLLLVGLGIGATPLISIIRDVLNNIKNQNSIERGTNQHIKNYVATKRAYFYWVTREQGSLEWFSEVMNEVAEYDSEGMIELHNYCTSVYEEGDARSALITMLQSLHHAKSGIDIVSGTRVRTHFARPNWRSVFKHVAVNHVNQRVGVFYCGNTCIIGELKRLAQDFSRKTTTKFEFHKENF

By UniProt entry, the sequences of proteins in these tests, tags left out.
UniProt Q9FIJ0: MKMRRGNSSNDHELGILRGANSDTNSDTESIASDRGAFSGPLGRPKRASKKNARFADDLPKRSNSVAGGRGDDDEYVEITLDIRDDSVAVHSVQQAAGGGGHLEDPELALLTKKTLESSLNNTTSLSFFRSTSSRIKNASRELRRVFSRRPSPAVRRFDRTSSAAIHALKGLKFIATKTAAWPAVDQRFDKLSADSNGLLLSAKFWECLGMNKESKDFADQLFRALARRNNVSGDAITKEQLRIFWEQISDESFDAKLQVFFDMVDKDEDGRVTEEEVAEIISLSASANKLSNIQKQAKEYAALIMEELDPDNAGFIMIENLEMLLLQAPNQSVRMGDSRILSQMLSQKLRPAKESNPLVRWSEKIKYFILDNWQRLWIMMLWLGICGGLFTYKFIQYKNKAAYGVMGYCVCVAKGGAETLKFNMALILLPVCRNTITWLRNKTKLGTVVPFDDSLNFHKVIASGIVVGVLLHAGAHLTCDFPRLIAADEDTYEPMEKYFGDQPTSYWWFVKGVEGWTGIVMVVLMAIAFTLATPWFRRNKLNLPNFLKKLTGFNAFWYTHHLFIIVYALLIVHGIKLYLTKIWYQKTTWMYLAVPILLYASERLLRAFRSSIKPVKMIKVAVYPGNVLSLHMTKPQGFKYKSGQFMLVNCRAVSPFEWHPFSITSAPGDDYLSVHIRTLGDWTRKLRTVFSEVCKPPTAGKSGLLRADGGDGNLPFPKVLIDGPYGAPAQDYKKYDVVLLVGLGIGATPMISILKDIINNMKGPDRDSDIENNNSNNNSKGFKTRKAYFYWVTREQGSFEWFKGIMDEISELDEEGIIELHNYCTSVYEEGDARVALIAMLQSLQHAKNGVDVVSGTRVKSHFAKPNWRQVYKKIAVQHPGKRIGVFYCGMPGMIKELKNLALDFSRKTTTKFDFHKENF
UniProt O48538: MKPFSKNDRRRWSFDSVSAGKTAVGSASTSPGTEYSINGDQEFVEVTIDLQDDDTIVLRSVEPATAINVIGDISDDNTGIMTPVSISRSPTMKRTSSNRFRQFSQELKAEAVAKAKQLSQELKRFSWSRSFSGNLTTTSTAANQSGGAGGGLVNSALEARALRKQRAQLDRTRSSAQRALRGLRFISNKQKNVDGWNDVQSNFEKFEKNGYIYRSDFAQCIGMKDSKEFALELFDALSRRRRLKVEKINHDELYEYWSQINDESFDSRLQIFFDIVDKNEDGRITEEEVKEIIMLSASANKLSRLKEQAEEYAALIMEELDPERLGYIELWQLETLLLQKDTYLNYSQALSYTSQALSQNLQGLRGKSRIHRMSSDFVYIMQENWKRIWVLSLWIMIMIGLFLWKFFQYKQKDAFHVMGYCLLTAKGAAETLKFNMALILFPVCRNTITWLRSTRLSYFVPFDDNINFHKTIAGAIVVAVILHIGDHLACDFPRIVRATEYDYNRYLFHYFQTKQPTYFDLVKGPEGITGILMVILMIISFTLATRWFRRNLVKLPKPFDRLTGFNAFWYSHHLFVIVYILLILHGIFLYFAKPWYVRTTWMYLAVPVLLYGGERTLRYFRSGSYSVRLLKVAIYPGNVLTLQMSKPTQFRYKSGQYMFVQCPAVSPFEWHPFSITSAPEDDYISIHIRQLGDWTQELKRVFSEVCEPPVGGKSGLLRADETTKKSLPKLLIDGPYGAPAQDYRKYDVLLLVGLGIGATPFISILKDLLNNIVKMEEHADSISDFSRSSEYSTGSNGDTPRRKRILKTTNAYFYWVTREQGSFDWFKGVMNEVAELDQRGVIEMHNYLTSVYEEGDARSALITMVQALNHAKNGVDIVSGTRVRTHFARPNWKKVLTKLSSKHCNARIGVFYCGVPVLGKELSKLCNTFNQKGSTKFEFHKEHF

T2: RBOHC, NADPH oxidase, BiFC fusion (Arabidopsis thaliana) (UniProt O81210)
T2 sequence: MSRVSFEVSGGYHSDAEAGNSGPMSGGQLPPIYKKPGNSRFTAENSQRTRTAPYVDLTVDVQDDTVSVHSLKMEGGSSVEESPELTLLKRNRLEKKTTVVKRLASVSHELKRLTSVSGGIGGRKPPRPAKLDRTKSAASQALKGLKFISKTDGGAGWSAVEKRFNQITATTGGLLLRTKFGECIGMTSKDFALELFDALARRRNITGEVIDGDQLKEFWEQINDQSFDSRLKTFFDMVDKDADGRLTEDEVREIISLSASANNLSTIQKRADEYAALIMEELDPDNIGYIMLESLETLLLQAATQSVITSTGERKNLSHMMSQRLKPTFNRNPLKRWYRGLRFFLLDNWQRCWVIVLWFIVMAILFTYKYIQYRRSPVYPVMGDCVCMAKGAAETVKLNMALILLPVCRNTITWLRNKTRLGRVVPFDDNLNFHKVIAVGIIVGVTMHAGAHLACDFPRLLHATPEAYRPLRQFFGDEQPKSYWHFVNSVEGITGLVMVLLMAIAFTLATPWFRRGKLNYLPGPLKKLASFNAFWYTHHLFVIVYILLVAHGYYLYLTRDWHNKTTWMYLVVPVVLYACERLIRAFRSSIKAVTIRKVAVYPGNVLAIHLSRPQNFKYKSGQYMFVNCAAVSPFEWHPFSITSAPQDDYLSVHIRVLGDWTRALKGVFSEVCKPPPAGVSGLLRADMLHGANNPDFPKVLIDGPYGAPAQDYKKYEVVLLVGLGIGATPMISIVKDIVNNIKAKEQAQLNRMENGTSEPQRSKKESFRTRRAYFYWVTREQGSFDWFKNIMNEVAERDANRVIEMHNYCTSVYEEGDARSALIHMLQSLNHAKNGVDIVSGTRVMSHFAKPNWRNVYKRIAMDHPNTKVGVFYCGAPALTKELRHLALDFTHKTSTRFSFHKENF

T3: BAK1, co-receptor kinase, BiFC fusion (Arabidopsis thaliana) (UniProt Q94F62)
T3 sequence: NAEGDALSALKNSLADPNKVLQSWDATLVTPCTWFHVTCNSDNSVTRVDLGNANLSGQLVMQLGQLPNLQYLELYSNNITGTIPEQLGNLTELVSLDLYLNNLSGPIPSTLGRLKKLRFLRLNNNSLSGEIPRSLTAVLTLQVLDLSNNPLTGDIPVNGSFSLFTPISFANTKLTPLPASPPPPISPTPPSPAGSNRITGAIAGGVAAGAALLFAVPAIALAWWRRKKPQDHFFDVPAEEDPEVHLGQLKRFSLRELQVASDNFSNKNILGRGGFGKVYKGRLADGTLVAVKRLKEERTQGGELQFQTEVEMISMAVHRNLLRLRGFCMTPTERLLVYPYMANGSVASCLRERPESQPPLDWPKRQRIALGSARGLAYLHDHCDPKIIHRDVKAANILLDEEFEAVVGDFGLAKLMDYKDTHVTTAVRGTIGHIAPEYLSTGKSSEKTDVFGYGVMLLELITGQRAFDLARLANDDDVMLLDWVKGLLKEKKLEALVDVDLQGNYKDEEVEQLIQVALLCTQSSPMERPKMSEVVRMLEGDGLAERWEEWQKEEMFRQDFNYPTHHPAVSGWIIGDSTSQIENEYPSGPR

T4: SGN3, receptor-like kinase, BiFC fusion (Arabidopsis thaliana) (UniProt C0LGQ5)
T4 sequence: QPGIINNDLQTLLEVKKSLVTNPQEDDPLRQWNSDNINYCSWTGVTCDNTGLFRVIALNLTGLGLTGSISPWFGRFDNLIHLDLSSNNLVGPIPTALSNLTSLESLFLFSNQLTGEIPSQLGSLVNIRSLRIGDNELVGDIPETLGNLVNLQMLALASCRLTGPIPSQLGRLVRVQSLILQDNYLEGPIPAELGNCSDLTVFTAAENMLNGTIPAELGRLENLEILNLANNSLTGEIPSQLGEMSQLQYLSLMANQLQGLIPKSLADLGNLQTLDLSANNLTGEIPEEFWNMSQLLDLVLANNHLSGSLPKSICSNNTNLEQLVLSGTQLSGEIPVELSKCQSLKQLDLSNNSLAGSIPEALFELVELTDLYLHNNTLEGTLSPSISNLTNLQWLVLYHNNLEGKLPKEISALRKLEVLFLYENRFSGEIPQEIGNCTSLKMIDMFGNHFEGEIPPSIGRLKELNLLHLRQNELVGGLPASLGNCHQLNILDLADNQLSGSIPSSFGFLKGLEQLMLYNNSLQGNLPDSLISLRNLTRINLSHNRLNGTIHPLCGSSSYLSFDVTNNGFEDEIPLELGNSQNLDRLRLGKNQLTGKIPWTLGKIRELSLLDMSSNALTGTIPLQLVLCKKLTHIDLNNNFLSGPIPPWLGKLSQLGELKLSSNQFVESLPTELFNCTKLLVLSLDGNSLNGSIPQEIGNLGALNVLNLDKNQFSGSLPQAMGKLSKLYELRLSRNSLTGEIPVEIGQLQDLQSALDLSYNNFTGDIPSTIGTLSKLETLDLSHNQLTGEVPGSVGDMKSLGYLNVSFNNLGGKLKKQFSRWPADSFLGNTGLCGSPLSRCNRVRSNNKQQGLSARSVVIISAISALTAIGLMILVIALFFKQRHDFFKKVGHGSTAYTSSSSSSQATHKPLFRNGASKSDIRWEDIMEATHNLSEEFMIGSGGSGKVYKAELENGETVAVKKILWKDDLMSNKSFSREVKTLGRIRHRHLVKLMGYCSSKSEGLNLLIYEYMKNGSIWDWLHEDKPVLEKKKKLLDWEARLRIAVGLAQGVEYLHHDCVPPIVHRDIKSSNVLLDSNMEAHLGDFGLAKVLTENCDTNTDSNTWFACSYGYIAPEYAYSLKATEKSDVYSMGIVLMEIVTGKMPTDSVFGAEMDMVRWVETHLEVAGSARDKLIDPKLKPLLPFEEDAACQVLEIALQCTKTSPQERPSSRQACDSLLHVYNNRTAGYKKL

T5: RBOHC, epitope-tagged, expressed in Arabidopsis protoplasts (Arabidopsis thaliana) (UniProt O81210)
T5 sequence: T2 sequence

B1: LKS4 (low-K+ sensitive 4), receptor-like cytoplasmic kinase, BiFC fusion (enzyme, UniProt Q9SY91 1-424)
chain: MRDSSTTASTKSSPLWKPFASNCCSVDDQTVFGNLSRCRPSRSEFSKNHLGPLPSFRRLSFADLSRSSSARINEDLAQTLGADLVDFQMCELKMITQSFSGNYLLGEGGFGKVYKGYVDDYLRQSLKAQPVAVKLLDIEGLQGHREWLSEVIFLGQLKHPNLVKLIGYCCEEEERVLIYEFMPRGSLENHLFRRISLSLPWATRLKIAVAAAKGLAFLHDLESPIIYRDFKTSNILLDSDFTAKLSDFGLAKMGPEGSKSHVTTRVMGTYGYAAPEYVSTGHLTTKSDVYSYGVVLLELLTGRRATEKSRPKNQQNIIDWSKPYLTSSRRLRCVMDPRLAGQYSVKAAKDTALLALQCVSPNPKDRPKMLAVVEALESLIHYKDMAVSSGHWPLSPKSQGGKVSPKVRGDHRSGRKSAPGSLRS
B2: LKS4, epitope-tagged, expressed in Arabidopsis protoplasts (enzyme, UniProt Q9SY91 1-424)
chain: B1 chain

Assays:
[1] = biological target: RBOHD, NADPH oxidase, BiFC fusion (Arabidopsis thaliana) (UniProt Q9FIJ0); test: split reporter
[2] = biological target: T1, RBOHB, NADPH oxidase, BiFC fusion (Arabidopsis thaliana); test: split reporter
[3] = biological target: T2, RBOHC, NADPH oxidase, BiFC fusion (Arabidopsis thaliana); test: split reporter
[4] = biological target: RBOHF, NADPH oxidase, BiFC fusion (Arabidopsis thaliana) (UniProt O48538); test: split reporter
[5] = biological target: T3, BAK1, co-receptor kinase, BiFC fusion (Arabidopsis thaliana); test: split reporter
[6] = biological target: T4, SGN3, receptor-like kinase, BiFC fusion (Arabidopsis thaliana); test: split reporter
[7] = biological target: RBOHF, epitope-tagged, expressed in Arabidopsis protoplasts (Arabidopsis thaliana) (UniProt O48538); test: co-IP
[8] = biological target: T5, RBOHC, epitope-tagged, expressed in Arabidopsis protoplasts (Arabidopsis thaliana); test: co-IP
[9] = biological target: RBOHD, epitope-tagged, expressed in Arabidopsis protoplasts (Arabidopsis thaliana) (UniProt Q9FIJ0); test: co-IP

| Binder | binding [1] | binding [2] | binding [3] | binding [4] | binding [5] | binding [6] | binding [7] | binding [8] | binding [9] |
| --- | --- | --- | --- | --- | --- | --- | --- | --- | --- |
| B1 | binds | no binding | binds | binds | no binding | binds |  |  |  |
| B2 |  |  |  |  |  |  | binds | binds | binds |
